Test results as given in US4508711A (American Cyanamid Company, priority 1984, dated 1985).
Some peptides are written in HELM: one residue between dots, names in brackets for other building blocks, links after the first $.

What was measured:
[1] = general procedure: Boc solid-phase peptide synthesis; Boc-D-Trp-Merrifield resin (1% cross-linked); conditions: whole synthesis
[2] = general procedure: Boc solid-phase peptide synthesis; Boc-Phe-Merrifield resin (1% cross-linked); conditions: whole synthesis, overall, scale 1 mmole

PEPTIDE1{[Ahep].F.[dW].K.[Thr(Bzl)]}$PEPTIDE1,PEPTIDE1,1:R1-5:R2$$$V2.0
isolated yield ([1]; scale of the general procedure 0.5 mmol): 33%

H-Lys(Boc)-Thr(Bzl)-Ahep-Phe-D-Trp-NHNH2
crude mass ([1]; scale 0.5 mmol): 0.50 g

PEPTIDE1{[Ahep].F.[dW].K.T}$PEPTIDE1,PEPTIDE1,1:R1-5:R2$$$V2.0
isolated yield [2]: 15%
